Source: the supplement of paper PMC3334620
The full ranking holds about 33,000 sequences; the median of “E-score (-0.5 to 0.5)” is about -0.016, and the highest 2% start at about 0.3. This is one part of the list.

What follows are sequences tested against T1, Yer184c (UniProt P39961) (assay: PBM E-score (8-mer binding enrichment) (E-score (-0.5 to 0.5)); higher = stronger / more preferred TF binding). Conditions: protein concentration: 100 nM; construct: GST-full length.
T1 sequence: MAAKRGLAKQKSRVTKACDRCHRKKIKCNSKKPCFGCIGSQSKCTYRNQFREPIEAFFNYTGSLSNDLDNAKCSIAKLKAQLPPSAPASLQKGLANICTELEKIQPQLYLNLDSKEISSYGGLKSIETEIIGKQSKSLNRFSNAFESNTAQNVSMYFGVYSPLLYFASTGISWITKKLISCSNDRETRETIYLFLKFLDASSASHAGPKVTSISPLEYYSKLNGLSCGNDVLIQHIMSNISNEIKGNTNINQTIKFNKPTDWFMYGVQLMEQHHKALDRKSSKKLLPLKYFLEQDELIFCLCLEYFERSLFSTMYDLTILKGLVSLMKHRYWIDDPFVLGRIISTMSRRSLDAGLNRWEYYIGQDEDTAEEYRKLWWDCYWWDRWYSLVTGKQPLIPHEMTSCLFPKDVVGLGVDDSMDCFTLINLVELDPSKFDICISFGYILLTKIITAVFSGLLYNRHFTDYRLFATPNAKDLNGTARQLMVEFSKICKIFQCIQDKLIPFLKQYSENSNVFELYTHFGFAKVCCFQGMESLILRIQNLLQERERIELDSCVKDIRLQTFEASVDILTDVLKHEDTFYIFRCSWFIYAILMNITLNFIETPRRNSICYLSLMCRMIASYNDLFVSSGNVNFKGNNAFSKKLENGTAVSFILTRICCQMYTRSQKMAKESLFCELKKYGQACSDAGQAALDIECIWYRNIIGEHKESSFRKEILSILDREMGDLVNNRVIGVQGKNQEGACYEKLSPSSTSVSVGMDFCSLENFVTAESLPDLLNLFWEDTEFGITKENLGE
How it was run: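 Universal all-10-mer Agilent arrays, double-stranded by primer extension on fresh or once-stripped slides, were probed with about 100-200 nM GST-tagged yeast transcription factors made by PURExpress. Fluorescent anti-GST detected bound protein, and masliner normalised the scans. E-scores from the Universal PBM Analysis Suite were given to each ungapped eight-base word pooled with its reverse complement.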

Sequence	PBM E-score
CATTGCAC	-0.0423
TGCGTCAA	-0.0778
AGCTGTTA	-0.091
GTACAAGA	-0.0433
AGAACCCT	-0.127
CAAATAGA	0.094
CTCCTAGA	-0.097
ATTGAGCA	-0.0211
AAGCTGTA	0.0855
AAAATGAC	0.114
ACCCTCGA	-0.211
CGTACCAA	0.116
CTCTGTGA	0.0767
ACCACGAA	-0.0436
ACGTGATG	-0.188
AAACAGCG	0.0334
GTGGACGA	-0.155
AGAGCCGA	0.26
AGCTTTCC	0.134
ATCCGAAC	0.261
AGGTGAGA	0.0538
CTAGTACA	-0.018
GGCTATTA	0.0181
AGGGAAGA	-0.12
AGCCGTCG	0.0941

6 entries from above in a different format:
Sequence | PBM E-score
AGAACCCT | -0.127
AAAATGAC | 0.114
CGTACCAA | 0.116
CTAGTACA | -0.018
GGCTATTA | 0.0181
AGCCGTCG | 0.0941

(further entries)

Sequence	PBM E-score
AAATACTG	-0.0439
ACTGCGCG	-0.125
CACGGAGG	0.0399
CATACGGG	-0.0636
CAAGTATA	-0.232
ATGGCAGC	-0.279
AGGAAAAC	0.0188
CTCACTGC	-0.0867
GACTATTA	0.0882
TTTAAAAA	0.169
CATGTAGG	0.00826
ATGGATAA	0.0299
ATAACGAT	-0.103
AGGGAATC	-0.243
ATAATACA	0.27
CGAACAAC	0.24
CGTCAGCC	0.0845
GATGAACC	0.00123
ATAGTCCG	0.239
GATGGGCC	-0.0855
AGTCATAG	-0.226
TAAGAGAA	0.0763
GATGGCTA	0.0371
TGAACACA	0.192
CCCTTTCG	-0.0672

Sequence	PBM E-score
AACTTCAC	0.0811
AGTTCTAG	0.0249
AGGCTAGC	-0.167
CAGCCAAG	-0.167
AACTGGGG	-0.217
ATGTAACG	0.11
AAAGACAC	0.125
ATACTACC	-0.126
GTTAGAGA	-0.0529
AATTCCCA	-0.123
AAACTAGA	-0.0867
CTCTACTC	-0.147
AGAACTTA	0.218
CTTTCGAA	0.0772
ATAGGTAC	-0.0746
AGACCATG	-0.263
ACCTAGGG	-0.105
AAACGTAA	-0.00968
ATATCACA	-0.0526
CAAGGGAC	-0.157
CACGGGTA	0.0568
AGATGGTA	-0.0403
AGCGTCTG	-0.149
ACCCTTAG	-0.142
TATTCAGA	-0.0185

Sequence	PBM E-score
ATCGTTCC	0.0025
CTGCTAAA	0.0837
AGTTACAT	-0.113
GCGGGACA	-0.0021
CGTGGCGC	-0.165
AAAAAGCA	-0.0149
GAGTTCAC	0.0324
TACCAATA	-0.126
AAAGGATG	-0.0484
AAAGTCAC	0.118
CCACATAG	-0.14
TCACTACA	0.14
CCCCCTAA	-0.312
CAGTAAGG	-0.0988
CTTAGCGC	0.105
AAACGAAT	0.0241
AGAACGAC	-0.0223
ACCGTGCT	-0.1
GGACCGCC	-0.149
CGCTCGAC	-0.304
TCGGATCA	0.31
CTCCTGAC	-0.228
AGTATTGG	-0.141
CAGGTATG	-0.194
CCGAACTA	0.323

Sequence	PBM E-score
CACGAGAC	-0.0174
ATTCAGAG	0.0787
GTCGGTCA	-0.0435
ACGCCTAG	-0.244
CGGGTCAC	-0.0566
AAACGGTT	-0.118
CGTATCAG	-0.0101
AGAATCGA	0.0425
AAAGTCCG	0.217
AGACTGAA	0.0583
CCCGTTCG	-0.0289
ACCTCCAT	-0.301
AACTTGGT	0.0029
CCCGGACA	0.283
ATCCAGCC	-0.0934
CTTATGTA	0.149
TAACGTAA	0.0251
ACACGCGA	0.0183
TAGATTCA	-0.00116
GTGCGTCA	-0.0158
CAACTAGC	0.0974
CTTTTAAC	-0.0576
GGTACGCA	0.0222
GTGCCGTA	0.16
CGGACAGA	0.189

Sequence	PBM E-score
ACCGTTAG	-0.0187
AGCCAATG	-0.202
AATATGAC	0.00386
CCTATTAA	0.0417
ACTCGTGG	-0.128
CTCTCAGA	-0.159
CAGATAAC	0.00569
GAGGAGGA	-0.262
CCCTGCCG	-0.0964
AATTATTG	0.161
ACCGGTAA	0.217
GTGTCGTA	-0.14
CCGCCAAC	-0.109
GTGAGAAA	0.17
CCACGGGG	-0.0617
AAAGAGTT	-0.106
AAACAACC	0.082
GTTAGAAA	0.184
GCCGTACA	0.148
CCCGCATA	0.0386
AGAGAGGA	-0.219
ATTTCTGC	0.205
CTTAAGCA	0.131
GTCGAACA	0.142
ACTTTGAA	0.107

Sequence	PBM E-score
CAGTAGTC	-0.301
CACCGCTC	-0.0301
ATCACCAC	-0.00335
ATAAGGGC	-0.0697
AGGCAAAC	0.0503
ACTTAGCG	0.0253
GTGCACGA	-0.0665
CAGAGAGG	-0.415
GGAGTGAC	-0.0944
CCTTCTCG	-0.243
ATGATATG	0.138
AAGTCTAG	-0.181
ACCATGAC	-0.0281
ACACAGTA	0.0746
ATTTGACC	0.0125
GCAAGGAC	-0.0397
GCACCTGA	-0.0292
AAGACAAC	0.212
GCGGAAAA	0.216
AATCTAAA	0.207
CTGATATC	0.134
AGATGAGA	-0.0377
